Experimental data from patent publication US20190292605A1, “Biomarkers of Response to Cyclin D-CDK4/6 Targeted Therapies in Cancer” (The Regents of the University of California, priority 2014, published 2019).
At least one compound was matched to its structure with a doubt left.

Experiments:
Format in all cases: cell-based, human
melanoma cell lines = assay: cell cycle and apoptosis by flow cytometry in melanoma cell lines
Rb = assay: western blot of markers downstream of CDK4 and CDK6 in gastric and colon cell lines; conditions: SW480, MKN74 (sensitive) and HCT8, MKN1 (resistant); more pronounced in sensitive lines
[1] = tested on: resistant cell lines expressing high GLI2 protein levels; assay: palbociclib in combination with GLI2 siRNA knockdown, cell growth proliferation; conditions: palbociclib 100 nM and 250 nM plus GLI2 knockdown, 6 days of treatment
phospho-Rb protein = assay: western blot of phospho-Rb in melanoma cell lines
[2] = tested on: gastric and colon cancer cell lines; assay: cell cycle analysis in gastric and colon cancer cell lines
FOXM1 protein = assay: western blot of FOXM1 in melanoma cell lines
[3] = M14 (sensitive) and A375 (resistant) cells, 100 nM palbociclib, 30 min, 24 and 48 hrs

## CC(=O)c1c(C)c2cnc(Nc3ccc(N4CCNCC4)cn3)nc2n(C2CCCC2)c1=O [palbociclib]
Melanoma cell lines; 100 nM palbociclib for 72 hours, melanoma lines across spectrum of sensitivities, more prominent in sensitive lines
  cell cycle analysis (DAPI): Most of the cell lines showed a G0-G1 arrest
Melanoma cell lines; melanoma cell lines
  apoptosis by flow cytometry: not significant apoptosis
  cell cycle arrest by flow cytometry: strong G1/S arrest
Rb
  Rb phosphorylation: time-dependent inhibition of Rb phosphorylation
  expression of total Rb: decreased expression of total Rb
[1]
  cell growth proliferation with GLI2 siRNA knockdown: potentiation in the inhibition of the cell growth proliferation
phospho-Rb protein; [3]
  phospho-Rb protein by Western blot: decrease on phospho-Rb protein in sensitive cells
phospho-Rb protein; melanoma cell lines, sensitive vs resistant
  phospho-Rb protein by Western blot: dramatic decrease in phospho-Rb protein only in sensitive cell lines
[2]; RKO and MKN1
  cell cycle effect in resistant cell lines: minimal effect
[2]; SW480 and NUGC4, 24-hour and 48-hour time points
  cell cycle arrest in sensitive cells: potent G1/G0 arrest
FOXM1 protein; [3]
  FoxM1 protein by Western blot: decrease in this protein only in sensitive cells
FOXM1 protein; melanoma cell lines
  FoxM1 protein by Western blot: decrease in FOXM1 protein
